US12521402B2, “Biomarker and drug combinations for heart failure prediction” (Endothelium Scanning Nanotechnology Limited, priority 2022, dated 2026)

Experiment: Saliva proteomics: biomarker quantification by mass spectrometry SWATH in participants at risk of heart failure vs controls
Set-up: species or system human
Details: for AtRisk average: 'at risk' of heart failure group mean; for Control average: control group mean
[1] = differential expression (fold) control vs 'at risk', printed as larger/smaller average whatever the direction
[2] = saliva, mass spectrometry SWATH quantification
[3] = differential expression (fold) between control and at-risk averages, saliva
[4] = saliva, mass spectrometry SWATH, 20 samples

Row | Molecule | Control vs Risk [1] | AtRisk average [2] | Control average [2] | Control vs Risk [3] | AtRisk average [4] | Control average [4]
1 | LEG1H (protein, UniProt Q6P5S2 21-330, looked up) Protein LEG1 homolog: GTSNLSETEPPLWKESPGQLSDYRVENSMYIINPWVYLERMGMYKIILNQTARYFAKFAPDNEQNILWGLPLQYGWQYRTGRLADPTRRTNCGYESGDHMCISVDSWWADLNYFLSSLPFLAAVDSGVMGISSDQVRLLPPPKNERKFCYDVSSCRSSFPETMNKWNTFYQYLQSPFSKFDDLLKYLWAAHTSTLADNIKSFEDRYDYYSKAEAHFERSWVLAVDHLAAVLFPTTLIRSYKFQKGMPPRILLNTDVAPFISDFTAFQNVVLVLLNMLDNVDKSIGYLCTEKSNVYRDHSESSSRSYGNNS | 3.80 | 7,884,593 ng/ml | 29,932,578 ng/ml | – | – | –
2 | AMPN (protein, UniProt P15144 2-967, looked up) Aminopeptidase N: AKGFYISKSLGILGILLGVAAVCTIIALSVVYSQEKNKNANSSPVASTTPSASATTNPASATTLDQSKAWNRYRLPNTLKPDSYRVTLRPYLTPNDRGLYVFKGSSTVRFTCKEATDVIIIHSKKLNYTLSQGHRVVLRGVGGSQPPDIDKTELVEPTEYLVVHLKGSLVKDSQYEMDSEFEGELADDLAGFYRSEYMEGNVRKVVATTQMQAADARKSFPCFDEPAMKAEFNITLIHPKDLTALSNMLPKGPSTPLPEDPNWNVTEFHTTPKMSTYLLAFIVSEFDYVEKQASNGVLIRIWARPSAIAAGHGDYALNVTGPILNFFAGHYDTPYPLPKSDQIGLPDFNAGAMENWGLVTYRENSLLFDPLSSSSSNKERVVTVIAHELAHQWFGNLVTIEWWNDLWLNEGFASYVEYLGADYAEPTWNLKDLMVLNDVYRVMAVDALASSHPLSTPASEINTPAQISELFDAISYSKGASVLRMLSSFLSEDVFKQGLASYLHTFAYQNTIYLNLWDHLQEAVNNRSIQLPTTVRDIMNRWTLQMGFPVITVDTSTGTLSQEHFLLDPDSNVTRPSEFNYVWIVPITSIRDGRQQQDYWLIDVRAQNDLFSTSGNEWVLLNLNVTGYYRVNYDEENWRKIQTQLQRDHSAIPVINRAQIINDAFNLASAHKVPVTLALNNTLFLIEERQYMPWEAALSSLSYFKLMFDRSEVYGPMKNYLKKQVTPLFIHFRNNTNNWREIPENLMDQYSEVNAISTACSNGVPECEEMVSGLFKQWMENPNNNPIHPNLRSTVYCNAIAQGGEEEWDFAWEQFRNATLVNEADKLRAALACSKELWILNRYLSYTLNPDLIRKQDATSTIISITNNVIGQGLVWDFVQSNWKKLFNDYGGGSFSFSNLIQAVTRRFSTEYELQQLEQFKKDNEETGFGSGTRALEQALEKTKANIKWVKENKEVVLQWFTENSK | 3.33 | 16,886 ng/ml | 56,159 ng/ml | – | – | –
3 | LV310 (protein, UniProt A0A075B6K4 20-115, looked up) Immunoglobulin lambda …: SYELTQPPSVSVSPGQTARITCSGDALPKKYAYWYQQKSGQAPVLVIYEDSKRPSGIPERFSGSSSGTMATLTISGAQVEDEADYYCYSTDSSGNH | 3.39 | 385,001 ng/ml | 1,306,454 ng/ml | – | – | –
4 | PLP2 (protein, UniProt Q04941 1-152, looked up) Proteolipid protein 2: MADSERLSAPGCWAACTNFSRTRKGILLFAEIILCLVILICFSASTPGYSSLSVIEMILAAIFFVVYMCDLHTKIPFINWPWSDFFRTLIAAILYLITSIVVLVERGNHSKIVAGVLGLIATCLFGYDAYVTFPVRQPRHTAAPTDPADGPV | 3.45 | 40,439 ng/ml | 139,383 ng/ml | – | – | –
5 | CEAM1 (protein, UniProt P13688 35-526, looked up) Cell adhesion molecule CEACAM1: QLTTESMPFNVAEGKEVLLLVHNLPQQLFGYSWYKGERVDGNRQIVGYAIGTQQATPGPANSGRETIYPNASLLIQNVTQNDTGFYTLQVIKSDLVNEEATGQFHVYPELPKPSISSNNSNPVEDKDAVAFTCEPETQDTTYLWWINNQSLPVSPRLQLSNGNRTLTLLSVTRNDTGPYECEIQNPVSANRSDPVTLNVTYGPDTPTISPSDTYYRPGANLSLSCYAASNPPAQYSWLINGTFQQSTQELFIPNITVNNSGSYTCHANNSVTGCNRTTVKTIIVTELSPVVAKPQIKASKTTVTGDKDSVNLTCSTNDTGISIRWFFKNQSLPSSERMKLSQGNTTLSINPVKREDAGTYWCEVFNPISKNQSDPIMLNVNYNALPQENGLSPGAIAGIVIGVVALVALIAVALACFLHFGKTGRASDQRDLTEHKPSVSNHTQDHSNDPPNKMNEVTYSTLNFEAQQPTQPTSASPSLTATEIIYSEVKKQ | – | – | – | 2.85 | 364,656 ng/ml | 127,906 ng/ml
6 | SUGP2 (protein, UniProt Q8IX01 1-1082, looked up) SURP and G-patch …: MAARRITQETFDAVLQEKAKRYHMDASGEAVSETLQFKAQDLLRAVPRSRAEMYDDVHSDGRYSLSGSVAHSRDAGREGLRSDVFPGPSFRSSNPSISDDSYFRKECGRDLEFSHSDSRDQVIGHRKLGHFRSQDWKFALRGSWEQDFGHPVSQESSWSQEYSFGPSAVLGDFGSSRLIEKECLEKESRDYDVDHPGEADSVLRGGSQVQARGRALNIVDQEGSLLGKGETQGLLTAKGGVGKLVTLRNVSTKKIPTVNRITPKTQGTNQIQKNTPSPDVTLGTNPGTEDIQFPIQKIPLGLDLKNLRLPRRKMSFDIIDKSDVFSRFGIEIIKWAGFHTIKDDIKFSQLFQTLFELETETCAKMLASFKCSLKPEHRDFCFFTIKFLKHSALKTPRVDNEFLNMLLDKGAVKTKNCFFEIIKPFDKYIMRLQDRLLKSVTPLLMACNAYELSVKMKTLSNPLDLALALETTNSLCRKSLALLGQTFSLASSFRQEKILEAVGLQDIAPSPAAFPNFEDSTLFGREYIDHLKAWLVSSGCPLQVKKAEPEPMREEEKMIPPTKPEIQAKAPSSLSDAVPQRADHRVVGTIDQLVKRVIEGSLSPKERTLLKEDPAYWFLSDENSLEYKYYKLKLAEMQRMSENLRGADQKPTSADCAVRAMLYSRAVRNLKKKLLPWQRRGLLRAQGLRGWKARRATTGTQTLLSSGTRLKHHGRQAPGLSQAKPSLPDRNDAAKDCPPDPVGPSPQDPSLEASGPSPKPAGVDISEAPQTSSPCPSADIDMKTMETAEKLARFVAQVGPEIEQFSIENSTDNPDLWFLHDQNSSAFKFYRKKVFELCPSICFTSSPHNLHTGGGDTTGSQESPVDLMEGEAEFEDEPPPREAELESPEVMPEEEDEDDEDGGEEAPAPGGAGKSEGSTPADGLPGEAAEDDLAGAPALSQASSGTCFPRKRISSKSLKVGMIPAPKRVCLIQEPKVHEPVRIAYDRPRGRPMSKKKKPKDLDFAQQKLTDKNLGFQMLQKMGWKEGHGLGSLGKGIREPVSVGTPSEGEGLGADGQEHKEDTFDVFRQRMMQMYRHKRANK | 3.78 | 2,852 ng/ml | 10,789 ng/ml | – | – | –
7 | PRELP (protein, UniProt P51888 21-382, looked up) Prolargin: QPTRRPRPGTGPGRRPRPRPRPTPSFPQPDEPAEPTDLPPPLPPGPPSIFPDCPRECYCPPDFPSALYCDSRNLRKVPVIPPRIHYLYLQNNFITELPVESFQNATGLRWINLDNNRIRKIDQRVLEKLPGLVFLYMEKNQLEEVPSALPRNLEQLRLSQNHISRIPPGVFSKLENLLLLDLQHNRLSDGVFKPDTFHGLKNLMQLNLAHNILRKMPPRVPTAIHQLYLDSNKIETIPNGYFKSFPNLAFIRLNYNKLTDRGLPKNSFNISNLLVLHLSHNRISSVPAINNRLEHLYLNNNSIEKINGTQICPNDLVAFHDFSSDLENVPHLRYLRLDGNYLKPPIPLDLMMCFRLLQSVVI | – | – | – | 1.49 | 74,266 ng/ml | 49,932 ng/ml
8 | ZYX (protein, UniProt Q15942 2-572, looked up) Zyxin: AAPRPSPAISVSVSAPAFYAPQKKFGPVVAPKPKVNPFRPGDSEPPPAPGAQRAQMGRVGEIPPPPPEDFPLPPPPLAGDGDDAEGALGGAFPPPPPPIEESFPPAPLEEEIFPSPPPPPEEEGGPEAPIPPPPQPREKVSSIDLEIDSLSSLLDDMTKNDPFKARVSSGYVPPPVATPFSSKSSTKPAAGGTAPLPPWKSPSSSQPLPQVPAPAQSQTQFHVQPQPQPKPQVQLHVQSQTQPVSLANTQPRGPPASSPAPAPKFSPVTPKFTPVASKFSPGAPGGSGSQPNQKLGHPEALSAGTGSPQPPSFTYAQQREKPRVQEKQHPVPPPAQNQNQVRSPGAPGPLTLKEVEELEQLTQQLMQDMEHPQRQNVAVNELCGRCHQPLARAQPAVRALGQLFHIACFTCHQCAQQLQGQQFYSLEGAPYCEGCYTDTLEKCNTCGEPITDRMLRATGKAYHPHCFTCVVCARPLEGTSFIVDQANRPHCVPDYHKQYAPRCSVCSEPIMPEPGRDETVRVVALDKNFHMKCYKCEDCGKPLSIEADDNGCFPLDGHVLCRKCHTARAQT | 3.47 | 617,222 ng/ml | 2,143,957 ng/ml | – | – | –
9 | JUPI1 (protein, UniProt Q9UK76 1-154, looked up) Jupiter microtubule …: MTTTTTFKGVDPNSRNSSRVLRPPGGGSNFSLGFDEPTEQPVRKNKMASNIFGTPEENQASWAKSAGAKSSGGREDLESSGLQRRNSSEASSGDFLDLKGEGDIHENVDTDLPGSLGQSEEKPVPAAPVPSPVAPAPVPSRRNPPGGKSSLVLG | – | – | – | 1.54 | 1,070,216 ng/ml | 695,806 ng/ml
10 | LFNG (protein, UniProt Q8NES3 1-379, looked up) Beta-1,3-N-acetylglucosaminylt …: MLKRCGRRLLLALAGALLACLLVLTADPPPPPLPAERGRRALRSLAGPAGAAPAPGLGAAAAAPGALVRDVHSLSEYFSLLTRARRDAGPPPGAAPRPADGHPRPLAEPLAPRDVFIAVKTTKKFHRARLDLLLETWISRHKEMTFIFTDGEDEALARHTGNVVITNCSAAHSRQALSCKMAVEYDRFIESGRKWFCHVDDDNYVNLRALLRLLASYPHTRDVYVGKPSLDRPIQAMERVSENKVRPVHFWFATGGAGFCISRGLALKMSPWASGGHFMNTAERIRLPDDCTIGYIVEALLGVPLIRSGLFHSHLENLQQVPTSELHEQVTLSYGMFENKRNAVHVKGPFSVEADPSRFRSIHCHLYPDTPWCPRTAIF | 3.25 | 65,302 ng/ml | 212,321 ng/ml | – | – | –
11 | ACBP (protein, UniProt P07108 2-87, looked up) Acyl-CoA-binding protein: SQAEFEKAAEEVRHLKTKPSDEEMLFIYGHYKQATVGDINTERPGMLDFTGKAKWDAWNELKGTSKEDAMKAYINKVEELKKKYGI | 4.25 | 5,811,090 ng/ml | 1,366,139 ng/ml | – | – | –
